{"source": "PubChem BioAssay AID504774 (Drosophila RNAi Screening Center, 2011)", "purpose": "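Genes required for cells to withstand methyl methanesulphonate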 (primary screen)", "cells": "Drosophila Kc167 cells", "reagent": "long dsRNA against Drosophila genes, about 0.25 µg dsRNA per well", "time to read-out": "about 6 days: 3 days knock-down, then 3 days with or without MMS", "conditions": "methyl methanesulphonate 0.004% (w/v) for 3 days after knock-down", "measurement": "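ATP-dependent luminescence as a measure of live cells in MMS-exposed wells, quantile normalised within each plate, with replicate values also given as a mean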", "direction": "mean viability with MMS and viability with MMS: higher = more surviving cells after MMS", "note": "The screen tested about 23,000 reagents; shown is a random part of those with a known target gene and a result. 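Values are quantile-normalised luminescence on an arbitrary scale; higher means more cells surviving MMS.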 Further read-outs or replicates are left out here."}
{"predicted target": "nonA", "mean viability with MMS": 3.63e6, "viability with MMS, replicate 1": 4.02e6}
{"predicted target": "CG5561", "mean viability with MMS": 3.57e6, "viability with MMS, replicate 1": 3.89e6}
{"predicted target": "Ance-4", "mean viability with MMS": 3.52e6, "viability with MMS, replicate 1": 4.05e6}
{"predicted target": "CG12679", "mean viability with MMS": 3.49e6, "viability with MMS, replicate 1": 4.03e6}
{"predicted target": "CG9673", "mean viability with MMS": 3.56e6, "viability with MMS, replicate 1": 4.06e6}
{"predicted target": "Nepl4", "mean viability with MMS": 3.58e6, "viability with MMS, replicate 1": 4.16e6}
{"predicted target": "CG31528", "mean viability with MMS": 3.37e6, "viability with MMS, replicate 1": 3.92e6}
{"predicted target": "CG2701", "mean viability with MMS": 3.61e6, "viability with MMS, replicate 1": 4.13e6}
{"predicted target": "CG6034", "mean viability with MMS": 3.45e6, "viability with MMS, replicate 1": 3.96e6}
{"predicted target": "Ugt303A1", "mean viability with MMS": 3.49e6, "viability with MMS, replicate 1": 4.02e6}
{"predicted target": "ND-B14", "mean viability with MMS": 3.41e6, "viability with MMS, replicate 1": 3.92e6}
{"predicted target": "CG7065", "mean viability with MMS": 3.55e6, "viability with MMS, replicate 1": 4.01e6}
{"predicted target": "SelR", "mean viability with MMS": 3.41e6, "viability with MMS, replicate 1": 3.82e6}
{"predicted target": "CG5885", "mean viability with MMS": 3.72e6, "viability with MMS, replicate 1": 4.23e6}

Not a retest: entries from further up.
{"predicted target": "ND-B14", "mean viability with MMS": 3.41e6, "viability with MMS, replicate 1": 3.92e6}
{"predicted target": "CG7065", "mean viability with MMS": 3.55e6, "viability with MMS, replicate 1": 4.01e6}
